The target in assay [1] is T1, SOD2 (endogenous, 293T cells) (UniProt P04179).
T1 sequence (looked up): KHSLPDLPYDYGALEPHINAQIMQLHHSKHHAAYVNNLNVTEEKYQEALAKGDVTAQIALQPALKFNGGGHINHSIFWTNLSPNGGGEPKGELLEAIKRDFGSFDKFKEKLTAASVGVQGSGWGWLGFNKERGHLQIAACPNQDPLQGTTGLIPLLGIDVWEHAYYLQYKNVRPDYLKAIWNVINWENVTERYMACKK
The assay can be described thus: FIG. 3A: Flag-SIRT3 transfected into 293T cells, immunopurified, western blot with anti-SOD2.

The target of assay [2] is T1, SOD2 (endogenous, 293T cells). The assay can be described thus: co-immunopurification (anti-Flag) from 293T cells overexpressing Flag-SIRT3, western blot with SOD2 antibody.
For assay [3], the target named is T2, SIRT3 (present in 293T cells) (UniProt Q9NTG7).
T2 sequence (looked up): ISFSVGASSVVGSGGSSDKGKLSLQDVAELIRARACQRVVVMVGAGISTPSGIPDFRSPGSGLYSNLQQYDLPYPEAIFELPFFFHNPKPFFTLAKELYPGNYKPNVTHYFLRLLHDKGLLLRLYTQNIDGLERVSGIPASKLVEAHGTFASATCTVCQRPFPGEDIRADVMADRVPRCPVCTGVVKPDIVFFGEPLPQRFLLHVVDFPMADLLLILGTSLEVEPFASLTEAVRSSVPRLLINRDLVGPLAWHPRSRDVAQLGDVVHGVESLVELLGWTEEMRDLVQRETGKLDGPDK
The assay can be described thus: co-immunopurification from 293T cells transfected with Flag-SOD2, western blot with SIRT3 antibody.

Assay [4] addresses T2, SIRT3 (present in 293T cells). The experiment in a line: FIG. 3B: Flag-SOD2 transfected into 293T cells, immunopurified, western blot with anti-SIRT3.

No constants are given. Whether binding was seen depends on the method and setting. A result given as binding can be weak or reduced; the word gives no strength. For some of these results: Binding seen in cells or lysates may run through a third protein.

As for Flag-tagged SIRT3 (enzyme), the binding entry in assay [1] and in assay [2] was “binds” each time.

On to Flag-tagged SOD2 (enzyme), for which the binding entry in assay [3] and in assay [4] was “binds” in each case.

These data come from patent publication US20140017221A1.
